Test results published in PubChem BioAssay AID504847 (National Center for Advancing Translational Sciences (NCATS), 2011).
“And” between values parts separate entries of the source, which are not always exact repeats. Identical values can stand only once. About 3,700 (0.93%) of roughly 400,000 compounds were called active. This list was built around the results that the source calls inconclusive (neither active nor inactive); the mix of calls is not that of the screen. Calls follow the shape of the dose curve; as a rule, active = well fitted inhibition curve with a large enough effect; inconclusive = small, poorly fitted or top-dose-only effect, or another doubt; inactive = no such curve, though single readings can be large or run the other way. A potency beside an inconclusive call is a rough fit, not a confirmed value. A structure can be active in one record and inactive in another.
% is scaled to controls: 0 for no effect and ±100 for the full control effect; potency is read from the fitted curve at half-maximal effect.

Sequences of proteins named here, by UniProt entry; tags and fusion partners are left off. A change or cut given only in a name is not applied to a line headed by its entry.
UniProt P11473: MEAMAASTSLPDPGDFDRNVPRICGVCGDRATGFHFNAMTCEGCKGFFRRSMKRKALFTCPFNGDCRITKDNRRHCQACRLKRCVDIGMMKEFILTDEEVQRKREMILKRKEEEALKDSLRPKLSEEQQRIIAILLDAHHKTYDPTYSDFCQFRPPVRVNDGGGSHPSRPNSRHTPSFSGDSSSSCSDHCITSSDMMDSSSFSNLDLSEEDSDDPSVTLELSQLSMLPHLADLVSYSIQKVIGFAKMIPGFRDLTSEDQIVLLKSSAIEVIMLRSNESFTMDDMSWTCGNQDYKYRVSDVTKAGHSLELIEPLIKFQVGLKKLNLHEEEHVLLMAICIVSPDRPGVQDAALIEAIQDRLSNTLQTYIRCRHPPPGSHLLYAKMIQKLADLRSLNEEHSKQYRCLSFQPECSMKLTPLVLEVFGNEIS

These compounds were tested against Vitamin D3 receptor (Homo sapiens) (UniProt P11473) (assay: Inhibitors of the vitamin D receptor (VDR): qHTS). Conditions: VDR-SRC2-3 peptide fluorescence polarization, 2 h; max response, negative = inhibition: active compounds read low.
Outline: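 After 23 nl compound addition and a short centrifugation, plates sat for 2 hours at ambient temperature; polarization of fluorescence then indicated loss of VDR binding to peptide SRC2-3.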
`O=C(O)c1ccccc1SSc1ccccc1C(=O)O` was tested, and the Potency was inconclusive: 39.8 µM [inhibitor, single point]. `C[C@H](NC[C@H](O)CP(=O)(O)CC1CCCCC1)c1ccc(Cl)c(Cl)c1` was tested, and the Potency was inconclusive: 50.1 µM [inhibitor, partial curve, poor fit]. For `C=C(C)[C@H]1CN[C@H](C(=O)O)[C@H]1CC(=O)O`, the max response, negative = inhibition was inactive: -6.49% [middle of 5 runs]. For `c1cnc(N2CC[C@@]3(CCCNC3)C2)nc1`, the Potency was inconclusive: 79.4 µM [inhibitor, partial curve, poor fit]. In the case of `CN(C)[C@@H]1C(=O)C(C(N)=O)=C(O)[C@]2(O)C(=O)C3=C(O)c4c(O)ccc(Cl)c4[C@](C)(O)[C@H]3C[C@@H]12`, the Potency is reported as inconclusive: 25.1 µM [inhibitor, partial curve]. For `CC(C)c1ccc(N2C(=O)NC(=O)/C(=C/c3cnc(-c4ccccc4)nc3)C2=O)cc1`, the Potency was active: 35.5 µM. With `O=C(NC1CCCCC1)Oc1cc2oc(=O)sc2cc1Cl` the Potency was active: 31.6 µM. For `O=C(Cc1ccc(Br)cc1)N1CCN(Cc2ccccc2)CC1`, the Potency was inconclusive: 89.1 µM [inhibitor, single point]. With `CN1C(=O)C(=Cc2ccccc2OCc2ccccc2Cl)C(=O)N(C)C1=O` the Potency was inconclusive: 50.1 µM [inhibitor, partial curve, poor fit]. In the case of `Cc1cc(OC(=O)c2ccco2)c2c3c(c(=O)oc2c1)CCCC3`, the max response, negative = inhibition is reported as inactive: 5.24%. For `O=C1NC(=O)N(c2ccc(F)cc2)C(=O)/C1=C/c1ccsc1`, the Potency was inconclusive: 89.1 µM [inhibitor, single point]. In the case of `CNC1=CN(O)C(c2ccccc2)=c2cc(Cl)ccc2=N1`, the Potency is reported as inconclusive: 39.8 µM [inhibitor, partial curve, poor fit]. With `COc1cccc(C2CC3C(=O)C=CC2N3Cc2ccccc2)c1` (stereo unspecified) the Potency was inconclusive: 56.2 µM [inhibitor, partial curve, poor fit]. For `CCOc1ccccc1CN(CCc1ccc2c(c1)OCO2)Cc1ccc(CC)cc1`, the max response, negative = inhibition was inactive: -15.9%. In the case of `O=C(O)CSCC(=O)N(Cc1ccccc1)c1nc(-c2ccccc2)c(-c2ccccc2)s1`, the Potency is reported as inconclusive: 79.4 µM [inhibitor, partial curve, poor fit]. For `CC(C)CNC(=O)c1c(N)n(Cc2ccc3c(c2)OCO3)c2nc3ccccc3nc12`, the max response, negative = inhibition was inactive: -13.3%. In the case of `CSc1ncc(C(=O)Nc2ccc(Cl)cc2C(=O)c2ccccc2)c(C)n1`, the max response, negative = inhibition is reported as inactive: 0.245%. For `Cn1ccnc1P(=S)(c1nccn1C)N1CCOCC1`, the Potency was inconclusive: 89.1 µM [inhibitor, single point]. With `N#Cc1ccc(CN2CCC3(CC2)CCN(C(=O)Oc2ccccc2)CC3)cc1` the max response, negative = inhibition was inactive: 1.99%. `Cc1cc(=O)oc2c1c(C)nn2-c1nn[nH]n1` was tested, and the Potency was inconclusive: 20 µM [inhibitor, partial curve]. For `CCCCCCCCCCCCCC(=O)OC1C(C)[C@@]2(O)C(C=C(CO)C[C@]3(O)C(=O)C(C)=C[C@H]23)[C@@H]2C(C)(C)[C@]12OC(C)=O` (stereo partly specified), the max response, negative = inhibition was inactive: -5.37%. In the case of `CC(=O)N1CC(=O)Nc2ccc(Cl)cc2C1c1ccccc1` (stereo unspecified), the max response, negative = inhibition is reported as inactive: -6.08%. For `S=C(S)N1CCCC1`, the Potency was active: 20 µM. In the case of `Oc1cc[c]([Hg][Cl])cc1`, the Potency is reported as active: 3.98 µM. For `COc1ccc(OC)c(N2C(=O)NC(=O)/C(=C/c3ccc([N+](=O)[O-])s3)C2=O)c1`, the Potency was inconclusive: 39.8 µM [inhibitor, single point]. In the case of `O=C1NC(=O)C(CCc2ccncc2)(CCc2ccncc2)C(=O)N1Cc1ccc(F)cc1`, the max response, negative = inhibition is reported as inactive: 6.32%. With `O=C1NC(=O)N(CCc2ccc(F)cc2)C(=O)/C1=C\C=C\c1ccccc1` the Potency was inconclusive: 10 µM [inhibitor, full curve, poor fit]. In the case of `O=C(/C=C/c1cccs1)c1cc(Cl)ccc1OC(=O)N1CCOCC1`, the Potency is reported as inconclusive: 56.2 µM [inhibitor, partial curve, poor fit]. In the case of `Cc1ccc(C(=O)NC2CC3CCCC(C2)N3Cc2ccccc2)cc1` (stereo unspecified), the Potency is reported as inconclusive: 89.1 µM [inhibitor, single point]. `Cn1nc(-c2ccccc2)nc2c(=O)n(C)c(=O)nc1-2` was tested, and the max response, negative = inhibition was inactive: -23.5%. In the case of `CCn1c(O)c(C=NCc2cccs2)c(=O)[nH]c1=O`, the Potency is reported as inconclusive: 35.5 µM [inhibitor, single point]. For `CC1=C[C@@H]2c3cccc4[nH]cc(c34)C[C@H]2N(C)C1`, the Potency was active: 50.1 µM. With `O=C1NC(=O)N(c2ccccc2)C(=O)/C1=C\C=C\c1ccccc1` the Potency was inconclusive: 22.4 µM [inhibitor, full curve, poor fit]. `[Hg+][c]1ccccc1` was tested, and the Potency was active: 12.6 µM. For `COP(=S)(OC)SCn1nnc2ccccc2c1=O`, the Potency was active: 8.91 µM and active: 22.4 µM. With `COc1ccc(N/N=C/c2c(O)n(-c3cccc(C)c3)c(=O)[nH]c2=O)cc1` the Potency was inconclusive: 89.1 µM [inhibitor, single point]. For `O=[N+]([O-])c1ccc(NCc2ccccc2)c2nonc12`, the max response, negative = inhibition was inactive: -6.9%. For `C[C@H]1CC[C@@H]2[C@@H](C)[C@H]3[C@H](C[C@H]4[C@@H]5CC=C6CC(O[C@@H]7O[C@H](CO)[C@H](O)[C@H](O[C@@H]8O[C@H](CO)[C@@H](O)[C@H](O)[C@H]8O)[C@H]7O[C@H]7O[C@@H](C)[C@H](O)[C@@H](O)[C@H]7O)CC[C@]6(C)[C@H]5CC[C@]34C)N2C1` (stereo partly specified), the Potency was inconclusive: 89.1 µM [inhibitor, single point]. In the case of `CCCCC/C=C\C/C=C\C/C=C\C/C=C\CCCC(=O)NCc1ccc(O)c(OC)c1`, the Potency is reported as active: 50.1 µM and active: 44.7 µM. With `CN1C2CCC1/C(=C/c1ccccn1)C(=O)/C2=C\c1ccccn1` the Potency was active: 28.2 µM. `CN(CCc1ccc(Cl)c(Cl)c1)[C@H]1CCCC[C@H]1N1CCCC1` was tested, and the Potency was inconclusive: 28.2 µM [inhibitor, partial curve, poor fit]. For `O=C1NC(=O)C(=Cc2cccs2)C(=O)N1`, the Potency was inconclusive: 100 µM [inhibitor, single point]. `CC(C)=CCCC(C)C1CC[C@@]2(C)C3=C(CC[C@@]12C)C1(C)CCC(O)C(C)(C)C1CC3` (stereo partly specified) was tested, and the Potency was active: 35.5 µM. `COc1ccc(/C=C2/C(=O)NC(=S)N(C3CC3)C2=O)cc1CN1C(=O)c2ccccc2C1=O` was tested, and the Potency was active: 44.7 µM. `CCOC(=O)c1ccc(N=Cc2c(O)n(-c3ccccc3F)c(=S)[nH]c2=O)cc1` was tested, and the Potency was inconclusive: 100 µM [inhibitor, single point]. `O=c1[nH]c(=S)n(Cc2ccc(F)cc2)c(O)c1C=NCCCn1ccnc1` was tested, and the max response, negative = inhibition was inactive: -12.3%. For `N#C/C(=C\c1cccc(O)c1)C(=O)O`, the Potency was inconclusive: 50.1 µM [inhibitor, partial curve, poor fit]. With `O=C(COc1ccccc1)N1CCN(CC2CC=CCC2)CC1` (stereo unspecified) the max response, negative = inhibition was inactive: 10.4%. With `CCOc1cc2c(cc1OCC)-n1cccc1C(c1ccc(OC(F)F)cc1)NC2` (stereo unspecified) the max response, negative = inhibition was inactive: 16.1%. For `O=C(O)c1ccc(/C=C/c2nc3ccccc3c(=O)n2-c2ccc(Br)cc2)cc1`, the Potency was inconclusive: 25.1 µM [inhibitor, partial curve, poor fit]. With `Nc1ccc(C2(c3ccc(N)cc3)c3ccccc3-c3ccccc32)cc1` the Potency was inconclusive: 89.1 µM [inhibitor, single point]. `C=CCN1C(=O)NC(=O)/C(=C/c2cnc(SC)nc2)C1=O` was tested, and the Potency was active: 28.2 µM. `CC(=O)OC1CC[C@@]2(C)C3CC(=O)[C@]4(C)C(C(C)=O)=CCC4C3CC[C@H]2C1` (stereo partly specified) was tested, and the Potency was active: 2 µM. `C=CCN1CC[C@]23c4c5ccc(O)c4O[C@H]2/C(=N/NC(=O)c2ccccc2)CC[C@@]3(O)[C@H]1C5` was tested, and the Potency was inconclusive: 89.1 µM [inhibitor, partial curve, poor fit]. `CC(=O)OC(C)(C)/C=C/C(=O)[C@](C)(O)[C@H]1[C@H](O)C[C@@]2(C)[C@@H]3CC=C4[C@H](C[C@H](O)C(=O)C4(C)C)[C@]3(C)C(=O)C[C@]12C` was tested, and the Potency was inconclusive: 100 µM [inhibitor, partial curve, poor fit]. In the case of `O=C1NC(=O)N(c2ccccc2)C(=O)/C1=C\c1ccccc1[N+](=O)[O-]`, the Potency is reported as active: 44.7 µM. In the case of `CC1(C)CCCN1CCC(C(N)=O)(c1ccccc1)c1ccccc1`, the max response, negative = inhibition is reported as inactive: -4.38%. In the case of `Cc1cc(C)n(-c2ccc(NN=C(C#N)C#N)cc2)n1`, the Potency is reported as active: 28.2 µM. In the case of `COC(=O)C(O)(c1ccc(NC(=S)NC(=O)c2ccc(Cl)cc2Cl)c(C)c1)C(F)(F)F` (stereo unspecified), the Potency is reported as inconclusive: 79.4 µM [inhibitor, partial curve, poor fit]. With `NS(=O)(=O)OC(CCc1ccccc1)C(Cl)(Cl)Cl` (stereo unspecified) the max response, negative = inhibition was inactive: 16.1%. For `CCN(CC)CCOC(=O)c1ccc(N=Cc2c(O)[nH]c(=O)[nH]c2=O)cc1`, the Potency was inconclusive: 44.7 µM [inhibitor, partial curve, poor fit]. With `Cn1cccc1/C=C1/C(=O)NC(=O)N(Cc2ccccc2)C1=O` the Potency was inconclusive: 89.1 µM [inhibitor, single point]. For `COc1ccc2nc(/N=C/c3c(O)n(-c4cccc(Cl)c4)c(=O)[nH]c3=O)sc2c1`, the Potency was active: 50.1 µM. With `Cc1ccc(N2C(=O)NC(=O)/C(=C/c3cnn(-c4ccc(C)cc4)c3)C2=O)cc1` the Potency was inconclusive: 89.1 µM [inhibitor, single point]. With `CC[C@H](C)/C=C(C)/C=C/C1=CC2=C(Cl)C(=O)[C@@](C)(OC(C)=O)C(=O)C2=CO1` the Potency was active: 39.8 µM. With `O=C1CC(=O)N(Cc2ccccc2)C(=O)N1` the Potency was inconclusive: 89.1 µM [inhibitor, single point].
